The other results are listed elsewhere or left out.
Compound: CN1CC[C@H](c2c(O)cc(O)c3c(=O)cc(-c4ccccc4Cl)oc23)[C@H](O)C1 [alvocidib]
Test: log2 fold change, soluble protein after heating vs DMSO (PISA); higher = thermal stabilisation; K562 lysate, 10 uM; active = over 0.2 and 3.5 SD of the protein, either way, in both replicates (recomputed)
Procedure, shortened: (§1)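 A 30 min treatment with 10 μM compound was applied to crude K562 extract at 1 mg/mL protein in PBS pH 7.4 with 1 mM MgCl2. Heating for 3 min spanned 48°C-58°C, after which aliquots were pooled, adjusted to 0.5% NP-40 at 4°C and spun at 21,000xg for 90 min. TMTpro 16plex LC-MS/MS of the supernatant, with channel sums equalised, gave values recorded as log-two fold change in thermal stability against solvent controls, from duplicates.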

Sequences of proteins named here, by UniProt entry; tags and fusion partners are left off. A change or cut given only in a name is not applied to a line headed by its entry.
UniProt P08294: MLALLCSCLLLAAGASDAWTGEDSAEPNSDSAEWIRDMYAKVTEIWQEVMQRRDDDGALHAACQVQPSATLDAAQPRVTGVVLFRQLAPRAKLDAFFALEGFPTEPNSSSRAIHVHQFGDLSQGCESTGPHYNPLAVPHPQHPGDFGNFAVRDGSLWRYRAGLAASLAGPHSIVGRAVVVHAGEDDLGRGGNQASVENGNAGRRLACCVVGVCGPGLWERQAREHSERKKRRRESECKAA
UniProt O75971: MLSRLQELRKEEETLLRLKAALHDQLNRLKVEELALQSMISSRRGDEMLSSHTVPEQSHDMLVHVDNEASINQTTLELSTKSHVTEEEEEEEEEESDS
UniProt O15370: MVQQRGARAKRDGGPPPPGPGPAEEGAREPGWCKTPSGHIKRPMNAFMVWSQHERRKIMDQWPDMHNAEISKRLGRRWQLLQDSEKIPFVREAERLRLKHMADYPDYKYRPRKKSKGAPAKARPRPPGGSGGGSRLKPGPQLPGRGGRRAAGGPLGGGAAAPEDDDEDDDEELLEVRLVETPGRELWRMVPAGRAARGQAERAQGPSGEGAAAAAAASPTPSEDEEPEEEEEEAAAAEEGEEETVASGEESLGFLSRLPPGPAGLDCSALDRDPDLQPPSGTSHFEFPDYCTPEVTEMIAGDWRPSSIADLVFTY
UniProt Q5SXM2: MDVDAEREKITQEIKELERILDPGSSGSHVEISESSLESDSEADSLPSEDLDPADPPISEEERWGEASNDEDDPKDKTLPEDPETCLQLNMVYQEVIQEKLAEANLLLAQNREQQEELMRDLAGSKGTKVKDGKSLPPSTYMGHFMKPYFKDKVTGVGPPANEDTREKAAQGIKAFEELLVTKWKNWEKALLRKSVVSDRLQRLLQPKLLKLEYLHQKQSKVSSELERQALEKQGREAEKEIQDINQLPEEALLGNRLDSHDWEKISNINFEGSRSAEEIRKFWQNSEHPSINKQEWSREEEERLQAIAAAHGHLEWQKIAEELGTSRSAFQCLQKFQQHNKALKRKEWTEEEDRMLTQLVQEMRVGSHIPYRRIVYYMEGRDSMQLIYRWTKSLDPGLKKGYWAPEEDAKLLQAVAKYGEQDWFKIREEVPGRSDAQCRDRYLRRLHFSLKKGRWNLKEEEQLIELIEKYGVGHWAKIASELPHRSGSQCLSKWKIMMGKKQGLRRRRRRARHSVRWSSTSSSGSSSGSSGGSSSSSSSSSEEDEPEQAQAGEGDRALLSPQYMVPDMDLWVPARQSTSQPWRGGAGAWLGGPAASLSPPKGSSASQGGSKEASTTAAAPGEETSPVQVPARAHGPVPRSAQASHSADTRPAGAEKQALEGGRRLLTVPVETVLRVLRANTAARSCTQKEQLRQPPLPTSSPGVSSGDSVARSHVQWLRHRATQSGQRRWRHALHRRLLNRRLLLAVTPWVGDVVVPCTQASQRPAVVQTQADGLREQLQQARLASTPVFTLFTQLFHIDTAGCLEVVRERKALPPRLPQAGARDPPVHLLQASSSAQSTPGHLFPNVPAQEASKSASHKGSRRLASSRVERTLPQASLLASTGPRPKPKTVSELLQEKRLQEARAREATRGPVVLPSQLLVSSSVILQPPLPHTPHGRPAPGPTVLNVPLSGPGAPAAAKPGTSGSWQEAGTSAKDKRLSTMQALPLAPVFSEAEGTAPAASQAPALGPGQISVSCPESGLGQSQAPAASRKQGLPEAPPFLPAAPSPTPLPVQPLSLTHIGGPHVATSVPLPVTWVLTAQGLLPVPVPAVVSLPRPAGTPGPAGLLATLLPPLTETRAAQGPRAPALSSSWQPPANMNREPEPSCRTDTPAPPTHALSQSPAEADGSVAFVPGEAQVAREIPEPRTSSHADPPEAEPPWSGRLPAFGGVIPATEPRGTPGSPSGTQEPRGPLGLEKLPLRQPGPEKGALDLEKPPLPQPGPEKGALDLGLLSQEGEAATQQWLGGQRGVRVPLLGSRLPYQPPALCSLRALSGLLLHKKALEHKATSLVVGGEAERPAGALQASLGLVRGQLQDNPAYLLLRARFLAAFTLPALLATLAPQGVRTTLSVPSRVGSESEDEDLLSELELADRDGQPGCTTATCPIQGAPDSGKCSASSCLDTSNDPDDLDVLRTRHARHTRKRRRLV
UniProt Q16560: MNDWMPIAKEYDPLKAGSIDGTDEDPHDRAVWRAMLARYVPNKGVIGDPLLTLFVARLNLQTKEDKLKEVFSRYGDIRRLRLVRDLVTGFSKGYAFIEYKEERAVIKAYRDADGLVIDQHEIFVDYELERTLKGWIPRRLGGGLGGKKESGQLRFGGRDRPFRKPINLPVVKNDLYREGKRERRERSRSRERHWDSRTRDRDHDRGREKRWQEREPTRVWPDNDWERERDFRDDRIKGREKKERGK
UniProt P17405: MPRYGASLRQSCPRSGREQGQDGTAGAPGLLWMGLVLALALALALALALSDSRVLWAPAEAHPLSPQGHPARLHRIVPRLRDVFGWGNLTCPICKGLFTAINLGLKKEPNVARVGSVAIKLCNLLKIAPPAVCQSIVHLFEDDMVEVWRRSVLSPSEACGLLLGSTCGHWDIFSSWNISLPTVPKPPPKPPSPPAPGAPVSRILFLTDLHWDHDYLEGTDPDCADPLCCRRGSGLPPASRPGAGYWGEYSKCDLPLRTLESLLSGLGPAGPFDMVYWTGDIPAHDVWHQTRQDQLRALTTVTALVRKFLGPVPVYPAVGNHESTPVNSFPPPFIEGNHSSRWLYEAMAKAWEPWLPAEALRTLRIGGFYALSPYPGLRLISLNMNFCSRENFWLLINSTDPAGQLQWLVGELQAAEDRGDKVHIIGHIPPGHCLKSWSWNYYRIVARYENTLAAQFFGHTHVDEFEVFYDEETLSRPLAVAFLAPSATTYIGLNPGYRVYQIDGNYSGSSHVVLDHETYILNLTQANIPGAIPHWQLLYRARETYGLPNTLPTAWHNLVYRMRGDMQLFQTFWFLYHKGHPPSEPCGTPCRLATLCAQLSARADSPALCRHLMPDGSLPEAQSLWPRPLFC
UniProt Q8WV41: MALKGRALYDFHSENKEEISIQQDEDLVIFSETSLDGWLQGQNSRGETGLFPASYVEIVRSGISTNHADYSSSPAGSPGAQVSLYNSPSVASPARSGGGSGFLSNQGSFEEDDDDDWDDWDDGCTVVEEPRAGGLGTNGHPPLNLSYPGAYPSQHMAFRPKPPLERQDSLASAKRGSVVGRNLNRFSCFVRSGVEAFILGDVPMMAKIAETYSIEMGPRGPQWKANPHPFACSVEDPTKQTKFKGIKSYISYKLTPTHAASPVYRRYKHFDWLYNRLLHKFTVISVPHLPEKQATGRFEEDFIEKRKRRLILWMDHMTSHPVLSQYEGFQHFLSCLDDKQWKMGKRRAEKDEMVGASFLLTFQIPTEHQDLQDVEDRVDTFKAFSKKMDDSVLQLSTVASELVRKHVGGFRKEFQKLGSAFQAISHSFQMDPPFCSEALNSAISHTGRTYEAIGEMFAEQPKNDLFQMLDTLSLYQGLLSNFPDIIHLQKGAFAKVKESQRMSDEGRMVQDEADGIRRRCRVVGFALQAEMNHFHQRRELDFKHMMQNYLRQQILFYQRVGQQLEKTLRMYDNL
UniProt Q96E16: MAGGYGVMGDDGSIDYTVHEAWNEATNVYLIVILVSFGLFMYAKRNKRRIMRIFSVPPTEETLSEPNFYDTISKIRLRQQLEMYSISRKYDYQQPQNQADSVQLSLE
UniProt Q9H7B4: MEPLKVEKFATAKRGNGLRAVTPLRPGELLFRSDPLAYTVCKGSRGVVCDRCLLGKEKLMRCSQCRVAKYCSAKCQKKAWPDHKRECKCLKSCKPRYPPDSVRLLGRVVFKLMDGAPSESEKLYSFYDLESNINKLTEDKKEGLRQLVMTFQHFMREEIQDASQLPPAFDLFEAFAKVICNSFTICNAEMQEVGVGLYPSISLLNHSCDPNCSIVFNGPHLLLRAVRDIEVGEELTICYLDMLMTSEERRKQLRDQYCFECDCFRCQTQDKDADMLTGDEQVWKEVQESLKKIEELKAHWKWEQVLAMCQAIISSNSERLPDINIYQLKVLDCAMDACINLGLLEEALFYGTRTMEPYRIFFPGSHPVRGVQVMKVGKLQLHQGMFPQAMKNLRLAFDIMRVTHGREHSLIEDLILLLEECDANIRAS
UniProt Q9Y5W8: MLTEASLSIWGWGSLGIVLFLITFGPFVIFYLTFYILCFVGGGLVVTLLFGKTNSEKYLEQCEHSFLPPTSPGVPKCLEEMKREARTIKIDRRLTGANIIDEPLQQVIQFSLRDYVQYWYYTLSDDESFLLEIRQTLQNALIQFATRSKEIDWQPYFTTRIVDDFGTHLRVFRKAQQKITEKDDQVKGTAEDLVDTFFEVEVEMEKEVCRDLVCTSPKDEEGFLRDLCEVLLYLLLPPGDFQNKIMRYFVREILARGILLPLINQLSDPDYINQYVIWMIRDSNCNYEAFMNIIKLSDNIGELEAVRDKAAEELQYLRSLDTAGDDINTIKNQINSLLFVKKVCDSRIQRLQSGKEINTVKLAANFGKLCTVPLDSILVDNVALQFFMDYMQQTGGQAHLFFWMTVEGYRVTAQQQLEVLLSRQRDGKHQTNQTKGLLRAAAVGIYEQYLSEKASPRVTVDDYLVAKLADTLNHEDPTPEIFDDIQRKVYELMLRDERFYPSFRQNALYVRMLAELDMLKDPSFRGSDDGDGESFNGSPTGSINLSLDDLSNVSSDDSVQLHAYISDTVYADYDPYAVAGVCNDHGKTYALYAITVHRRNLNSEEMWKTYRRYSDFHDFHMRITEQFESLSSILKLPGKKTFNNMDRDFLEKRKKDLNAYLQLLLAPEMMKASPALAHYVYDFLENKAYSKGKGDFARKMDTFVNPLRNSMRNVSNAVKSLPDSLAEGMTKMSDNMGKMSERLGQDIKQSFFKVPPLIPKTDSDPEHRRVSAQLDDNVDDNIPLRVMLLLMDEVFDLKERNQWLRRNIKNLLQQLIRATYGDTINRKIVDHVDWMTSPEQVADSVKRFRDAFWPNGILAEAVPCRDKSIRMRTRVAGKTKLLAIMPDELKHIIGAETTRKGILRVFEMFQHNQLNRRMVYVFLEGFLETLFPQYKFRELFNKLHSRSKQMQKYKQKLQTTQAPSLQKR
UniProt Q07617: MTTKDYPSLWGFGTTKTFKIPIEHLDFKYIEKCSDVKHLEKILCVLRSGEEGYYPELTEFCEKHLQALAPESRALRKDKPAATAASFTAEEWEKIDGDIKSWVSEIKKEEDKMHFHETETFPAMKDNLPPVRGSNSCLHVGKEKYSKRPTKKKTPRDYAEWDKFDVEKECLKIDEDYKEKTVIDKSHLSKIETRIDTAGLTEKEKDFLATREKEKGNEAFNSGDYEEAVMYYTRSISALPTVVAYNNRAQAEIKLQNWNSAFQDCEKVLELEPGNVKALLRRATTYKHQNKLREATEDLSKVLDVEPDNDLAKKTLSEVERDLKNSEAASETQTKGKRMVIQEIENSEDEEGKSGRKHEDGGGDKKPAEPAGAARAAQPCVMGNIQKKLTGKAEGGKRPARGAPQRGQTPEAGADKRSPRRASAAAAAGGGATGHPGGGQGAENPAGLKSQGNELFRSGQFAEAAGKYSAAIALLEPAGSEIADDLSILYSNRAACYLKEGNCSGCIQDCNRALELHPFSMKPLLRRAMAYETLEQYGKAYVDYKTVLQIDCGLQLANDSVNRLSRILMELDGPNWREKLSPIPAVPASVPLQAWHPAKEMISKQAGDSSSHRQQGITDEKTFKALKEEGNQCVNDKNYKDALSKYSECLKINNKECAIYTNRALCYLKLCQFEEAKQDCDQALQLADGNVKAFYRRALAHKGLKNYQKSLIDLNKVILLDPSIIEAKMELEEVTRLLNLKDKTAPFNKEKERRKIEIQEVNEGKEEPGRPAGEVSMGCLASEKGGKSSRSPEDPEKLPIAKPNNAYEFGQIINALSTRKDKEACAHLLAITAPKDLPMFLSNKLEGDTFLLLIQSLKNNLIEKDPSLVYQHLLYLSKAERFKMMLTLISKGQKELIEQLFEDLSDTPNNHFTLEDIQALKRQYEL
UniProt Q9Y5X0: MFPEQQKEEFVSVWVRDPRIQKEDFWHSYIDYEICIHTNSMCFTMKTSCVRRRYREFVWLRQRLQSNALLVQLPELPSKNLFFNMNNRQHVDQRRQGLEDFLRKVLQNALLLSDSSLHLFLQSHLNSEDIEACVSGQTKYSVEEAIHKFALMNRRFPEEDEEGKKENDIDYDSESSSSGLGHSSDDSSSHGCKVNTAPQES
UniProt Q9BV90: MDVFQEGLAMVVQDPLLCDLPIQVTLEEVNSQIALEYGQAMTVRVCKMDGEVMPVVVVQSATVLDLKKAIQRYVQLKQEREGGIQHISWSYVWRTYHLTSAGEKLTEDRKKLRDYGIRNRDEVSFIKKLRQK
UniProt P0DJ93: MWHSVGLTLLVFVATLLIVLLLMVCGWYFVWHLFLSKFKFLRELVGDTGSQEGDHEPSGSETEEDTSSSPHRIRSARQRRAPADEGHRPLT

log2 fold change, inactive:
SOD3 (UniProt P08294) -0.058
SNAPC3 (UniProt Q92966) 0
SNAPC5 (UniProt O75971) 0.089
SOX12 (UniProt O15370) -0.207
SNAPC4 (UniProt Q5SXM2) 0.014
SNRNP35 isoform 2 (UniProt Q16560) -0.003

Compound: CN1CCc2c(c3ccccc3n2Cc2ccc(C(=O)NO)cc2)C1 [Tubastatin A]
Test: as above
Procedure, shortened: as §1

log2 fold change, inactive:
SMPD1 (UniProt P17405) 0.001
SNX33 (UniProt Q8WV41) -0.276
SMIM19 (UniProt Q96E16) 0.229
SNX25 (UniProt Q9H3E2) 0.068
SNX2 isoform 2 (UniProt O60749) 0.081
SMYD3 (UniProt Q9H7B4) -0.122
SON isoform 6 (UniProt P18583) 0.014
SNX13 (UniProt Q9Y5W8) -0.004
SMC1B isoform 3 (UniProt Q8NDV3) 0.038
SPAG1 (UniProt Q07617) 0.071
SNRPD2 (UniProt K7EJB5) -0.001
SNX10 (UniProt Q9Y5X0) -0.263
SMARCC2 isoform 3 (UniProt Q8TAQ2) -0.024
SNX14 (UniProt Q9Y5W7) 0.296
SNRNP25 (UniProt Q9BV90) -0.026

Compound: CNC(=O)C1=CC=CC=C1NC2=NC(=NC=C2Cl)NC3=C(C=C(C=C3)N4CCOCC4)OC
Test: as above
Procedure, shortened: as §1

log2 fold change, inactive:
SMARCD3 (UniProt Q6STE5) 0.16
SMPD1 (UniProt P17405) 0.006
SNX25 (UniProt Q9H3E2) 0.01
SNX2 isoform 2 (UniProt O60749) -0.035
SMIM13 (UniProt P0DJ93) 0.057
SNAPC3 (UniProt Q92966) 0.104
SMYD3 (UniProt Q9H7B4) -0.018
SNX13 (UniProt Q9Y5W8) 0.049
SMC1B isoform 3 (UniProt Q8NDV3) 0
SMOX isoform 6 (UniProt Q9NWM0) 0.099
SNRPD2 (UniProt K7EJB5) -0.057
SNX10 (UniProt Q9Y5X0) -0.039
SNX14 (UniProt Q9Y5W7) -0.08

— the supplement of paper PMC10849652
